# Data: PubChem BioAssay AID445 (National Center for Advancing Translational Sciences (NCATS), 2006)
# This is one part of the list. Further columns of the screen follow, without active or inactive calls. The list favours compounds with an active or inconclusive main result. Potencies come from curve fits of mixed quality, noted in brackets.
# Test: IkB Signaling
# Conditions: ABC-DLBCL IkBa-CBG/CBR dual luciferase ratio (green luciferase fused to IkBa over red control in OCI-Ly3 lymphoma cells), 4 h
# Method in brief: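 Curves were fitted separately to fusion (green), unfused (red) and ratio luminescence, then classed by r2, magnitude and activity. Cells: OCI-Ly3, 4 h compound plus doxycycline at 37C; 10 uM MG-132 defined full response.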
# [1] = measured here: control luc red channel unless noted
# [2] = measured here: IkB-luc green channel
# [3] = measured here: control luc red channel
smiles,measurement,setting,value
Cc1c(C(=O)N2CCCCC2)oc2ccc(S(=O)(=O)N3CC(C)CC(C)C3)cc12 (stereo not drawn),AC50,[1],"12.6 µM [falling, partial curve]"
Cc1cccc(NC(=O)C2CCN(S(=O)(=O)c3ccc4c(c3)CCCN4C(=O)C3CCC3)CC2)c1,AC50,[1],"39.8 µM [falling, single point]"
Cc1cccc(C)c1-n1ncc(C(=O)N2CCN(c3ncccn3)CC2)c1C1CCN(C(=O)OC(C)(C)C)CC1,AC50,[1],"20 µM [falling, partial curve]"
O=C(COc1ccc(F)cc1)Nc1nnc(SCc2cc(=O)n3ccccc3n2)s1,AC50,[1],"1 µM [falling, full curve]"
N#C/C(C(=O)c1ccccc1)=C1/SC=C(N)N1c1ccccc1,AC50,[1],"25.1 µM [falling, partial curve]"
O=C(Nc1nc2n(n1)C(c1ccccc1)C=C(c1ccc(Cl)cc1)N2)c1ccco1 (stereo not drawn),AC50,[1],"15.8 µM [falling, partial curve]"
COc1cccc(Cn2c(SCc3ccc(C(=O)N4CCCCC4)cc3)nc3ccncc32)c1,AC50,[1],"25.1 µM [falling, single point]"
Cc1cc(Cl)ccc1NC(=O)CN1C(=O)COc2ccc(S(=O)(=O)Nc3ccccc3)cc21,AC50,[1],"20 µM [falling, partial curve]"
CCc1c(C)nc2[nH]nc(-c3ccccc3C)n2c1=O,AC50,[1],"6.31 µM [falling, partial curve]"
Cc1ccc(CN(Cc2ccco2)C(=O)COc2cccc(C)c2C)o1,AC50,[1],"31.6 µM [falling, single point]"
Cc1ccc(-n2c(SCC(=O)OC(C)C)nnc2-c2ccncc2)cc1,AC50,[1],"2 µM [falling, full curve]"
Cc1ccc2c(c1)N(C(=O)N1CCC(C(=O)NCCc3ccccc3)CC1)CC(C)O2 (stereo not drawn),AC50,[1],"6.31 µM [falling, partial curve]"
CC(C)Oc1ccc(CNC(=O)c2ccc(NC(=O)N3CC(C)Sc4ccccc43)cc2)cc1 (stereo not drawn),AC50,[1],"10 µM [falling, partial curve]"
CC1CCc2onc(C(=O)N3CCN(c4cccc(Cl)c4)CC3)c2C1 (stereo not drawn),AC50,[1],"3.98 µM [falling, partial curve]"
Cc1cc(C)c(S(=O)(=O)NCC(c2ccco2)S(=O)(=O)c2cccs2)c(C)c1 (stereo not drawn),AC50,[1],"31.6 µM [falling, single point]"
Cc1cc(Br)cc2c1N(Cc1ccccc1OC(C)C)C(=O)C2=O,AC50,[1],"12.6 µM [falling, partial curve]"
Cc1cccc(-c2noc(CN(C)S(=O)(=O)c3cc(Cl)ccc3Cl)n2)c1,AC50,[1],"10 µM [falling, partial curve]"
Cc1ccc(OCCC(=O)OCC(=O)Nc2ccc(Cl)cn2)cc1,AC50,[1],"25.1 µM [falling, partial curve]"
CCCCNc1c(C(=O)OCC)c(C)nc2c1cnn2CC,AC50,[1],"31.6 µM [falling, partial curve]"
COc1ccc(CCNC(=O)c2cc(=O)c3ccc(C)cc3o2)cc1OC,AC50,[1],"39.8 µM [falling, single point]"
CCCCCn1c(=O)[nH]c2cc(C(=O)NC(C)CC)ccc2c1=O (stereo not drawn),AC50,[1],"7.94 µM [falling, full curve]"
CCOc1ccc(CNC(=O)c2ccc3c(c2)nc2n3CCCCC2)cc1,AC50,[1],"6.31 µM [falling, partial curve]"
COc1ccc(C(=O)Nc2ccc3oc(-c4cccnc4)nc3c2)cc1OC,AC50,[1],"12.6 µM [falling, partial curve]"
CCc1cnc2c(c1SCC(=O)Nc1ccc(C(=O)OC)cc1)c(=O)n(C)c(=O)n2C,AC50,[1],"0.251 µM [falling, partial curve, poor fit]"
O=C(COC(=O)c1cccc(NC(=O)c2ccc(Br)cc2)c1)c1ccc(Cl)cc1,AC50,[1],"12.6 µM [falling, partial curve]"
Cc1cccc(Cn2c(COc3ccccc3)nc3ccccc32)c1,AC50,[1],"15.8 µM [falling, partial curve]"
CCOC(=O)c1nn(-c2ccc(OC)cc2)c(=O)c2c(N)scc12,AC50,[1],"39.8 µM [rising, single point] [measured here: IkB-luc green channel]"
O=C(NCc1cccs1)c1ccc(CSc2nc3ccncc3n2Cc2ccccc2F)cc1,AC50,[1],"15.8 µM [falling, single point]"
Cc1ccc(C(=O)CSc2nnc(-c3ccco3)n2Cc2ccccc2)cc1,AC50,[1],"15.8 µM [falling, partial curve]"
Cc1cc(/C=N/n2cnnc2)c(C)n1-c1ccc(OCc2ccccc2F)cc1,AC50,[1],"7.94 µM [falling, full curve]"
COc1cc(Cl)c(C)cc1Nc1nc2ccccc2n2cnnc12,AC50,[1],"5.01 µM [rising, full curve, poor fit]"
O=C(NCCc1csc(-c2ccc(F)cc2)n1)c1cccc(F)c1,AC50,[1],"20 µM [falling, partial curve]"
COc1ccc(NC(=O)c2nc(-c3ccc(C)cc3)n3c2CCCCC3)c(OC)c1,AC50,[1],"39.8 µM [falling, single point]"
CCc1cccc(C)c1NC(=O)c1cnn(-c2ccc(OC)cc2)c1C1CCN(C(=O)OC(C)(C)C)CC1,AC50,[1],"20 µM [falling, partial curve]"
Nc1nc(Sc2ccc([N+](=O)[O-])c3nonc23)c2[nH]cnc2n1,AC50,[1],"3.98 µM [rising, partial curve] [measured here: IkB-luc green channel]"
CCOCCc1nn2c(=O)cc(COC(=O)c3ccc(NC(=O)C(C)(C)C)cc3)nc2s1,AC50,[1],"39.8 µM [falling, single point]"
COCCNC(=O)c1cc(-c2cccs2)on1,AC50,[1],"12.6 µM [rising, partial curve] [measured here: IkB-luc green channel]"
Cc1ccc(SCC(=O)Nc2ccc3oc(-c4ccccc4F)nc3c2)cc1,AC50,[1],"0.2 µM [falling, full curve, poor fit]"
CCOC(=O)c1ccccc1NC(=O)c1cnc(N2CCOCC2)c2ccccc12,AC50,[1],"0.631 µM [rising, full curve, poor fit]"
Cc1cn2c(=O)cc(COC(=O)c3ccc(NC(=O)C(C)Oc4ccccc4)cc3)nc2s1 (stereo not drawn),AC50,[1],"39.8 µM [falling, single point]"
O=C(Nc1cc(Cl)cc(Cl)c1)c1cc(S(=O)(=O)N2CCC3(CC2)OCCO3)ccc1F,AC50,[1],"15.8 µM [falling, partial curve]"
COc1cccc(NC(=O)Cc2csc(COc3cccc(C)c3)n2)c1,AC50,[1],"25.1 µM [falling, partial curve]"
CCOc1ccccc1N1CCN(C(=O)Nc2cccc(Cl)c2)CC1,AC50,[1],"25.1 µM [falling, single point]"
Cc1ccc(-c2ccc(CCC(=O)O)n2-c2cccc(C)c2C)cc1,AC50,[1],"15.8 µM [falling, partial curve]"
Cc1ccc(C)c(N2CCN(C(=O)CN3C(=O)COc4ccc(S(=O)(=O)N5CCC(C)CC5)cc43)CC2)c1,AC50,[1],"12.6 µM [falling, partial curve]"
CCOc1ccc(Br)cc1S(=O)(=O)Nc1cccc(-c2ccc(OC)nn2)c1,AC50,[1],"15.8 µM [falling, single point]"
O=c1[nH]c(=O)n([C@H]2C[C@H](O)[C@@H](CO)O2)cc1Br,AC50,[2],"5.01 µM [rising, partial curve, poor fit]"
same,AC50,[3],"3.16 µM [rising, partial curve, poor fit]"
Cc1ccc(Cl)cc1N1CCN(C(=O)c2ccc3c(c2)N(Cc2ccccc2)CCS3)CC1,AC50,[1],"15.8 µM [falling, partial curve]"
COc1ccccc1CNc1nc2nc(C)c(Cl)c(=O)n2[nH]1,AC50,[1],"7.94 µM [falling, partial curve]"
O=C(CSc1nc(=O)n(Cc2ccco2)c2c1CCC2)NCc1ccc(Cl)cc1,AC50,[1],"20 µM [falling, partial curve]"
Cc1ccc(NC(=O)CCn2c(=O)c3cccn3c3ccccc32)cc1Cl,AC50,[1],"25.1 µM [falling, single point]"
COc1cc(OC)c(NC(=O)Cn2cnc3sc(C)c(S(=O)(=O)N4CCC(C)CC4)c3c2=O)cc1Cl,AC50,[1],"3.98 µM [falling, full curve]"
COc1ccc2c(c1)sc1nc(-c3ccccc3)cn12,AC50,[2],"3.16 µM [rising, partial curve]"
same,AC50,[3],"3.16 µM [falling, full curve]"
Cc1cc(C)c2nc(N(Cc3cccnc3)C(=O)Cc3ccccc3)sc2c1,AC50,[1],"25.1 µM [falling, partial curve]"
Cc1ccc(C(=O)N2CCN(Cc3cc(=O)n4nc(-c5ccccc5)sc4n3)CC2)cc1,AC50,[1],"3.16 µM [falling, full curve, poor fit]"
Cc1cc(NC(=O)Nc2nnc(N3CCCCC3)s2)ccc1Br,AC50,[1],"31.6 µM [falling, single point]"
COc1ccccc1CNC(=O)CSc1nc(=O)[nH]c2c1CCCC2,AC50,[1],"3.16 µM [falling, partial curve]"
COc1cccc(-c2nc(CS(=O)(=O)CC(=O)NCCc3ccc(Cl)cc3)c(C)o2)c1,AC50,[1],"1.26 µM [falling, partial curve, poor fit]"
Cc1ccc(-n2ncc3c(Nc4cccc(C(F)(F)F)c4)ncnc32)cc1C,AC50,[1],"3.16 µM [falling, full curve]"
CC1CCCCN1C(=O)CSc1c2c(nc3cc(Cl)ccc13)CCCC2 (stereo not drawn),AC50,[1],"25.1 µM [falling, single point]"
CCOCCn1c(=O)c2c(nc3n2CCN3c2ccc(C)c(C)c2)n(C)c1=O,AC50,[1],"31.6 µM [falling, single point]"

# Part of the list above, set out differently:
smiles	measurement	setting	value
Cc1c(C(=O)N2CCCCC2)oc2ccc(S(=O)(=O)N3CC(C)CC(C)C3)cc12 (stereo not drawn)	AC50	[1]	12.6 µM [falling, partial curve]
Nc1nc(Sc2ccc([N+](=O)[O-])c3nonc23)c2[nH]cnc2n1	AC50	[1]	3.98 µM [rising, partial curve] [measured here: IkB-luc green channel]
